Results published in the supplement of paper PMC3334620.
The full ranking holds about 33,000 sequences; the median of “E-score (-0.5 to 0.5)” is about -0.016, and the highest 2% start at about 0.3. This is one part of the list.

Molecular target: T1, Yer184c (UniProt P39961)
T1 sequence: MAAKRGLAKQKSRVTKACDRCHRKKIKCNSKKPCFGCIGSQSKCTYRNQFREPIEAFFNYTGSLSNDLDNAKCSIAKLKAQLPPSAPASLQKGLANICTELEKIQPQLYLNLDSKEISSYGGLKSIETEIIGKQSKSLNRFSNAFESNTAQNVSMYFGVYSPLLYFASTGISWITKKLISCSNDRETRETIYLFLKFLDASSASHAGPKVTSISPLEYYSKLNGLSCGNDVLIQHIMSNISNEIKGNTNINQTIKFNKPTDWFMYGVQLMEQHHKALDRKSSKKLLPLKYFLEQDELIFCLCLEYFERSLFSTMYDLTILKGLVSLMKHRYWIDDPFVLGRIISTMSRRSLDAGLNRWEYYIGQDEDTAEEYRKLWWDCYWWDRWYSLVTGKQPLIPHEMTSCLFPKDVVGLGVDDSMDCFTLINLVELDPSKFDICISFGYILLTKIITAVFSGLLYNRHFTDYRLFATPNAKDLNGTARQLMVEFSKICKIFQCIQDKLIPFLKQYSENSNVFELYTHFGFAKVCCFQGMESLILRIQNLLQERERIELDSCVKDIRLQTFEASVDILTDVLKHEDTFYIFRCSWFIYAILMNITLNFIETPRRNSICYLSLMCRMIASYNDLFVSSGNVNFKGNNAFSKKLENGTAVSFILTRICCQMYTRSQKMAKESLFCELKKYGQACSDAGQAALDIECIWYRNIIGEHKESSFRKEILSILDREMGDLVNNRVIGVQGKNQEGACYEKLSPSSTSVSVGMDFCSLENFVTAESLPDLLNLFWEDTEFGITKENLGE
Test: PBM E-score (8-mer binding enrichment) (E-score (-0.5 to 0.5)); higher = stronger / more preferred TF binding
Conditions: protein concentration: 100 nM; construct: GST-full length
Summary of the method: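 Masliner-normalised scans of fluorescent anti-GST signal were the basis for scoring. That signal came from GST-tagged yeast transcription factors applied at about 100-200 nM to double-stranded universal all-10-mer Agilent arrays on fresh or once-stripped slides. Each ungapped eight-base word, pooled with its reverse complement, received an E-score from the Universal PBM Analysis Suite.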

Sequence | PBM E-score
GTCGTAGA | -0.0563
AGCCCCCT | -0.395
CCGGGTCG | 0.218
ACGGTGCT | -0.203
CGGCAAGA | 0.317
GGCACTAA | 0.15
ACCGGATG | 0.307
AGGATGAT | -0.146
CGACGCGA | -0.0739
GGCATCCC | -0.352
GGCTCAGA | -0.0331
TCAAGTGA | -0.0206
CTACGGGC | -0.219
TCTCAGAA | 0.0627
CAATGCGC | -0.0114
TGGGAAAA | -0.0424
AATATTGA | 0.221
AAGCATTA | -0.00825
AGAACCTC | -0.107
TAATTGTA | 0.198
CTGGGGAA | -0.346
ATCATCAC | -0.0272
CCGTAGCG | 0.00212
ACACCGTA | -0.128
ACTTCGCA | -0.1

Sequence | PBM E-score
CCTCATCC | -0.196
CAGGTAGC | -0.0713
CAATCTCG | -0.011
GACGTATC | -0.125
AAGGACGA | -0.0189
GAATTCGC | 0.0958
ATGCTCCA | -0.0979
CGACGCCG | 0.239
AAAAGAGG | -0.172
GCTTTGAC | 0.123
AGGTATAC | 0.0468
ACCGGGCC | 0.298
ACCGACAC | 0.135
TAGTAGGA | -0.068
ACTAACAA | 0.0212
TCCAACAA | 0.00041
GACGTGCA | -0.0353
CCCTACCC | -0.256
AGATGACT | -0.185
AATATTCG | 0.0897
AGGCCTCG | -0.21
GCAAACGC | 0.0695
ATCGTCCC | -0.0809
GACCGAGA | 0.29
AACCTCGC | -0.135

Sequence | PBM E-score
CCCTCCAG | -0.328
GTTGCCGA | 0.373
AAGCGTCG | -0.106
CCTACGCA | -0.0765
TAACTTGA | 0.0926
GCCATCAA | -0.302
CGTCTTCC | -0.0931
AGCCTACT | -0.216
CTCCATTA | -0.189
AGGCAGCA | -0.0888
AAGGTGAT | -0.0112
CGTGCCAG | -0.125
AATATAAT | 0.15
CCGACGAC | 0.102
ACCACAAA | 0.172
CCTTAGAC | 0.00198
AACGGATG | 0.197
CGTCTACA | -0.19
CTCTCATA | -0.0704
GTTCGGTA | 0.29
TGGCCGAA | 0.295
ACTTTGTG | 0.0135
GTTACATA | 0.00737
ACCAAATA | 0.163
CGCCACGA | -0.138

Sequence | PBM E-score
GCCTGCAC | -0.19
ACGCGGGA | 0.0964
AGTCGCTC | -0.133
CAGCATTC | -0.0585
ATCTGAAC | 0.0885
ACTTCTGG | -0.132
CGATGCTA | 0.084
CATGACAC | -0.00895
CCAACATA | 0.163
CAAGTCTG | -0.185
CCCTAAGC | -0.298
CAGGGTGA | -0.199
CGTGCGCA | -0.0749
CCCCTACC | -0.269
ACAAAAAG | 0.135
GAAGTAGA | 0.15
ACAAGCAT | -0.052
ATGCTGAC | 0.0304
TCACTGCA | 0.164
TAAACGGA | 0.311
CGATGCTC | -0.035
AGCCACAG | -0.246
CGTTATGC | -0.0962
CTTACTGA | -0.0008
ATCTACAC | 0.0957

Sequence | PBM E-score
CCCGATAG | -0.177
ACTTTGTA | 0.0737
CGGCCTAC | 0.114
CAATTCCA | -0.0791
CATTGAAG | -0.102
TTAGCGAA | -0.0211
CGGCTCGC | 0.207
CAGCAAAC | 0.105
CCCTACTA | -0.0259
GATATGTA | 0.0416
CGATACGA | -0.0823
ACTTTTAT | 0.0269
TGGGTACA | -0.0284
TAGCGTGA | -0.119
AATAAGAT | 0.102
ATCATTTG | 0.078
GGGTAATA | 0.0677
CTGAATTA | 0.0697
CTGCTAGC | -0.168
AAATTACT | 0.196
AGCGCAAT | 0.00082
ACTAGGAC | -0.0895
AACTCTGA | 0.262
AGATCTTG | -0.0102
AACCAGAA | 0.0367

Sequence | PBM E-score
GAAAGTGA | 0.0574
CCGACCAC | 0.015
CAGAAAGC | 0.00441
AAGTCCGT | 0.149
GGTTTAAA | 0.141
ACGTCGAA | -0.0349
GTGCACAA | -0.028
ATTGTCTG | 0.197
AGTACCGC | -0.0677
ATGGTCGG | 0.0396
CTGCACTA | 0.109
AGGCATAA | -0.126
CAATATAG | 0.0222
CTTGTTCA | 0.0665
ATAACGAA | 0.166
CCGTACGG | -0.144
AAAGTATA | 0.101
ACAGTGGG | -0.249
CAGACCAA | 0.0961
ACCTCCGC | -0.054
CAAGGTTA | -0.0555
AATAATTG | -0.0857
CAAGCACA | -0.117
AGCGACCG | 0.185
AACGGCGG | 0.0499

Copied from the list:
PBM E-score with GAAAGTGA is entered as 0.0574
PBM E-score with CTTGTTCA is entered as 0.0665
PBM E-score with CAATATAG is entered as 0.0222

Additional entries follow.

Sequence | PBM E-score
CAACAGGG | -0.0372
GAATTAGC | 0.00904
AGAAGTAC | -0.149
AAAGTAAT | 0.156
GAGATCAC | -0.108
TGCGCAAA | 0.179
AACACACA | 0.094
TCACAGCA | 0.0456
GTCGTGAA | -0.192
TGCCAGCA | 0.0202
GCGGTACC | 0.132
AACGGCCC | -0.0656
CCAGAAAA | 0.0329
CTAATGAC | -0.212
CCGTGGTA | 0.00359
CATCATAA | 0.122
CCGATAGA | 0.0996
CCTTTAGA | -0.0913
CAACAACG | 0.0241
CAGTAAAA | 0.195
ATCGTGAA | 0.0467
ACGGTATC | 0.122

Five neighbouring entries out of the list so far, quoted:
Sequence | PBM E-score
CCGTGGTA | 0.00359
CATCATAA | 0.122
CCGATAGA | 0.0996
CCTTTAGA | -0.0913
CAACAACG | 0.0241
